# Test results reported in the supplement of paper PMC3334620.
# In all, about 33,000 sequences were measured (“E-score (-0.5 to 0.5)”: median about -0.015, highest 2% from about 0.3 on). The list shows a part of the results.
# Biological target: T1, Abf1 (UniProt P14164)
# T1 sequence: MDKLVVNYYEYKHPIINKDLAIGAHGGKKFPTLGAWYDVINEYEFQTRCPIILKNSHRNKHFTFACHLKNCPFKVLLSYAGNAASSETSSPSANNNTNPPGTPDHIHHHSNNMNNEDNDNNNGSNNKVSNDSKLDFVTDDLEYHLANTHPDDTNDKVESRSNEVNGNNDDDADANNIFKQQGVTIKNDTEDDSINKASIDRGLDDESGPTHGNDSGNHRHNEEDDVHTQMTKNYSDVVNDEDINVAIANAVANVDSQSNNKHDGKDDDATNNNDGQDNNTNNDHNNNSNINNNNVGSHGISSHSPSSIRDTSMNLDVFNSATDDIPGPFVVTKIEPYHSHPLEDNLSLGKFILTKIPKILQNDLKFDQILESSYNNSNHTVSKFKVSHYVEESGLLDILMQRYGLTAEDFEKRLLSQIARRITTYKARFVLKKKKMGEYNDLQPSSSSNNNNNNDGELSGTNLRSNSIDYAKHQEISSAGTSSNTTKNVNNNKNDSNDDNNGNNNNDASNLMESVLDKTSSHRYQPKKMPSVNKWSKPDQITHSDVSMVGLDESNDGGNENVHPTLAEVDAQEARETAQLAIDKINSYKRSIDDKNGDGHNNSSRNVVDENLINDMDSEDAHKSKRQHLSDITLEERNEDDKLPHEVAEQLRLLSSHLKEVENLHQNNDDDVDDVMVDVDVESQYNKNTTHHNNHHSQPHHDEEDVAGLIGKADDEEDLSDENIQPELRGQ
# Experiment: PBM E-score (8-mer binding enrichment) (E-score (-0.5 to 0.5)); higher = stronger / more preferred TF binding
# Details: protein concentration: 200 nM; construct: GST-full length
# Procedure: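 Universal 'all 10-mer' protein binding microarrays (Agilent AMADID 015681) probed with GST-tagged S. cerevisiae TFs (full-length or DBD) made by in vitro transcription/translation (PURExpress), about 100-200 nM. Bound TF was detected with fluorescent anti-GST. Each ungapped 8-mer (which stands for itself and its reverse complement) is scored by the PBM enrichment score (E-score), a modified Wilcoxon-Mann-Whitney statistic from -0.5 to +0.5, computed with the Universal PBM Analysis Suite. Scale: above 0.35 generally sequence-specific binding.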
row,Sequence,PBM E-score
1,ACGGCATC,0.203
2,ACCCAATG,-0.109
3,AACTTCGT,0.0012
4,CCCACCCG,-0.0134
5,GTTGTGCA,-0.143
6,CCGGTGGC,-0.29
7,AAGACGGT,0.165
8,ACCTTATC,0.0925
9,GCCTTCTA,-0.057
10,AGCCTCAA,-0.107
11,AAGGAATC,0.0406
12,GTTAGCGA,0.32
13,ACAGGCAG,-0.0782
14,ACACCTGA,-0.113
15,CTCCGCTC,-0.2
16,ACACGGCA,0.294
17,ATGCTTCC,-0.264
18,ATTACCCG,0.0504
19,TCAGCTCA,-0.107
20,AAAGTCTG,-0.0524
21,CTCCGGTA,-0.0172
22,CATCAATG,0.00816
23,CTGTTCAC,-0.0146
24,CACTGACA,0.132

row,Sequence,PBM E-score
1,CCTTACCC,-0.182
2,GCGCAGGA,-0.114
3,CATACGAG,0.171
4,AATACCCT,-0.0847
5,CTTCTATA,0.0624
6,AGTGAGGA,0.103
7,AAAAGCCC,-0.209
8,AAAGCTTG,-0.0657
9,GGGTTCTA,-0.121
10,AAGGTTGT,-0.1
11,CCCGCACA,-0.101
12,GCAAAGTA,0.0365
13,TCCCCACA,-0.203
14,AACCTGGG,-0.212
15,TTAACTAA,0.204
16,GCTTTGCC,-0.218
17,AGCGGCGA,0.0363
18,AGTCAATA,-0.0223
19,AAATTCTA,0.0776
20,ACGGATCA,0.0794
21,CCGGTATA,-0.056
22,GCTTCCAA,-0.008
23,ACGACCAT,0.119
24,CCACGGTC,-0.0478

# 27 entries from above, with tabs.
row	Sequence	PBM E-score
20	AAAGTCTG	-0.0524
21	CTCCGGTA	-0.0172
22	CATCAATG	0.00816
23	CTGTTCAC	-0.0146
24	CACTGACA	0.132
1	CCTTACCC	-0.182
2	GCGCAGGA	-0.114
4	AATACCCT	-0.0847
5	CTTCTATA	0.0624
6	AGTGAGGA	0.103
7	AAAAGCCC	-0.209
8	AAAGCTTG	-0.0657
9	GGGTTCTA	-0.121
10	AAGGTTGT	-0.1
11	CCCGCACA	-0.101
12	GCAAAGTA	0.0365
13	TCCCCACA	-0.203
15	TTAACTAA	0.204
16	GCTTTGCC	-0.218
17	AGCGGCGA	0.0363
18	AGTCAATA	-0.0223
19	AAATTCTA	0.0776
20	ACGGATCA	0.0794
21	CCGGTATA	-0.056
22	GCTTCCAA	-0.008
23	ACGACCAT	0.119
24	CCACGGTC	-0.0478

# Next entries follow:

row,Sequence,PBM E-score
1,ATTCAGGC,-0.0517
2,CCAACCCA,-0.127
3,CGGATCGA,-0.146
4,ACACGGTG,0.0335
5,GGCGCTAC,-0.17
6,AAAGGCGA,-0.00133
7,AGAGCGTC,0.0295
8,GGCAGCTA,0.128
9,GTGCATCA,0.271
10,AGGTCAAT,0.0507
11,CGGACCCA,-0.18
12,AATATTCT,0.0588
13,CAGAACTG,0.00223
14,AGCGGTAT,0.00674
15,CTATATAA,-0.178
16,CAGCCAAC,-0.0767
17,AAGGCAGG,-0.065
18,AACGTGAG,0.0297
19,CGCCGACA,-0.0736
20,CACGCCGC,-0.19
21,AGCGTGTC,-0.097
22,TATCTGGA,-0.0302
23,ACTTCTAC,0.101
24,GGTTGAGA,-0.0506

row,Sequence,PBM E-score
1,ACTGTACA,-0.0315
2,TAAAAAAA,0.146
3,ACGGCTTG,0.117
4,CGGTGTGC,-0.0196
5,ATTCCTAG,-0.0148
6,ACACCAAT,0.0514
7,TCCTGACA,0.0415
8,CTATATGA,0.0749
9,CCTCCGGC,0.0837
10,ACCAGGAT,0.0343
11,GCAGATCA,-0.0799
12,CCTCTACG,0.0681
13,ACTGACCA,-0.184
14,ATGGCGGC,-0.112
15,TAATCAAA,0.11
16,GCAATTAC,-0.126
17,AAACCTAT,-0.00276
18,CAATAAGG,-0.13
19,CAAGTGCA,-0.0318
20,ATCGTATA,0.326
21,AATTACAC,-0.0795
22,ATTATAGG,0.00322
